Record: PubChem BioAssay AID1159578 (Peter MacCallum Cancer Centre, 2015)
The deposit covers about 18,000 reagents; shown is a random part of them. About 1,030 of all reagents (5.7%) count as active. 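Inactive calls also include pools with fewer than 3300 nuclei, whose migration was not assessed.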 The raw values are shown without normalisation.

Assay: 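Knock-downs that alter how fast lymphatic endothelial cells migrate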 (primary screen)
System: human lymphatic endothelial cells
Reagent: siRNA pool against human genes, 40 nM
Timing: 48 h after transfection
Measurement: 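High-content imaging of dye-stained cells in a scratch assay measures filled wound area and nuclei per well; duplicate means given as ratio to mock and robust z-score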
Direction: migration robust z-score: higher = faster migration into the scratch; migration relative to mock: higher = more scratch area covered than mock; nuclei per well: higher = more cells in the well
Active means: 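Pools averaging fewer than 3300 nuclei are never called; remaining pools count as changed when migration robust z lies outside -2 to 2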
Meaning of the calls: active = migration changed; inactive = no migration change, or too few cells

| Gene | migration robust z-score | migration class with cell-count check | migration relative to mock | nuclei per well, duplicate mean | call |
| --- | --- | --- | --- | --- | --- |
| FOXA1 (forkhead box A1) | 1.17 | migration z between -2 and 2; enough cells | 1.03 | 5519 | inactive |
| ZNF664 (zinc finger protein 664) | 0.84 | migration z between -2 and 2; enough cells | 1.09 | 5062 | inactive |
| GBE1 (1,4-alpha-glucan branching enzyme 1) | 0.34 | migration z between -2 and 2; enough cells | 0.87 | 4761 | inactive |
| BEND2 (BEN domain containing 2) | -0.12 | migration z between -2 and 2; enough cells | 0.85 | 6693 | inactive |
| SLC38A8 | 0.34 | migration z between -2 and 2; enough cells | 0.98 | 5262 | inactive |
| RPTOR (regulatory associated protein of MTOR complex 1) | -1.83 | migration z between -2 and 2; enough cells | 0.41 | 6124 | inactive |
| CDK9 (cyclin dependent kinase 9) | 0.05 | migration z between -2 and 2; enough cells | 0.82 | 4203 | inactive |
| MINK1 (misshapen like kinase 1) | -2.78 | migration z below -2; enough cells | 0.27 | 3697 | active |
| TMCO1 (transmembrane and coiled-coil domains 1) | 1.65 | migration z between -2 and 2; enough cells | 1.31 | 5577 | inactive |
| ADRA1A (adrenoceptor alpha 1A) | -0.52 | migration z between -2 and 2; enough cells | 0.7 | 6162 | inactive |
| OR1C1 (olfactory receptor family 1 subfamily C member 1) | -1.03 | migration z between -2 and 2; enough cells | 0.62 | 4972 | inactive |
| LINGO4 (leucine rich repeat and Ig domain containing 4) | 0.89 | migration z between -2 and 2; enough cells | 1.12 | 6144 | inactive |
| ADAM9 (ADAM metallopeptidase domain 9) | 0.83 | migration z between -2 and 2; enough cells | 0.96 | 6762 | inactive |
| DLAT (dihydrolipoamide S-acetyltransferase) | -0.57 | migration z between -2 and 2; enough cells | 0.7 | 5618 | inactive |
| PCDHB5 (protocadherin beta 5) | -0.22 | migration z between -2 and 2; enough cells | 0.82 | 5744 | inactive |
| CD101 (CD101 molecule) | -0.56 | migration z between -2 and 2; enough cells | 0.74 | 4936 | inactive |
| SURF6 (surfeit 6) | 0.8 | migration z between -2 and 2; enough cells | 1.09 | 6766 | inactive |
| SULT1B1 (sulfotransferase family 1B member 1) | -0.78 | migration z between -2 and 2; enough cells | 0.66 | 4452 | inactive |
| SNURF (SNRPN upstream open reading frame) | 2.03 | migration z above 2; enough cells | 1.41 | 8568 | active |
| HSPB2 (heat shock protein family B (small) member 2) | 0.4 | migration z between -2 and 2; enough cells | 0.99 | 4550 | inactive |
| BGN (biglycan) | 0.18 | migration z between -2 and 2; enough cells | 0.94 | 5770 | inactive |
| BFSP1 (beaded filament structural protein 1) | -0.76 | migration z between -2 and 2; enough cells | 0.69 | 5274 | inactive |
| LOC402715 (karyopherin subunit alpha 2 pseudogene) | -1.12 | migration z between -2 and 2; enough cells | 0.6 | 5233 | inactive |
